From PubChem BioAssay AID2685 (National Center for Advancing Translational Sciences (NCATS), 2010)
The other results are listed elsewhere or left out. These are further read-outs of the screen, such as a control signal, another cell line or another target. No call is given for them. Most of these compounds were active or inconclusive in the main read-out, so they are no random draw. The note in brackets gives the kind of curve behind each potency; many fits are weak.

Assay: qHTS Assay for Lipid Storage Modulators in Drosophila S3 Cells;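 as to cell number change: cells counted by Cell Tracker Red CMTPX staining in the red channel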
Details: BODIPY lipid droplet fluorescence, 18-24 h; for cell number change: measured here: cell count max response, cells fed with added oleic acid
Summary of the method: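 Drosophila S3 cells loaded with oleic acid (400 uM, as added) and compounds at several concentrations; lipid droplets imaged by 488-nm laser-scanning cytometry, 500–530 nm intensity and object ratio to cell channel. Percent activity normalized to 20 uM Triacsin C.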

[1] = measured here: lipid fluorescence (Fed channel) AC50, cells fed with added oleic acid
[2] = measured here: cell number channel AC50, cells fed with added oleic acid

COc1ccccc1CNC(=O)COc1cccc(-n2cnnn2)c1
cell number change: -20.2%
AC50 [1]: 0.461 µM [falling, full curve]

COC(=O)CNc1nc(Cl)nc(N2CCC(C)CC2)n1
cell number change: 17.3%
AC50 [2]: 0.164 µM [rising, full curve, poor fit]
AC50 [1]: 0.092 µM [rising, full curve, poor fit]

COc1ccc(CCNC(=O)COC(=O)c2cc(OC)c(OC)cc2OC)cc1
cell number change: 26.7%
AC50 [2]: 0.206 µM [rising, full curve, poor fit]

COc1cc(SC)ccc1C(=O)Nc1c(Cl)cncc1Cl
cell number change: 52.3%
AC50 [2]: 0.00461 µM [rising, full curve, poor fit]
AC50 [1]: 25.9 µM [rising, partial curve]

O=C(CNC(=O)c1ccc(Cl)cc1Cl)OCc1nnc(-c2ccccc2)o1
AC50 [1]: 11.6 µM [rising, partial curve]

CC12CCC(=O)N1C(C(=O)Nc1cccc3ccccc13)CS2 (configuration not stated)
cell number change: -11.1%
AC50 [1]: 6.51 µM [falling, single point]

Cc1ccc2cc3cc(C(=O)NCCCN4CCCC4)oc3nc2c1
cell number change: 1.19%

CSc1nc(-c2ccccc2)nc(C(C)C)n1
cell number change: -17.9%
AC50 [1]: 32.6 µM [rising, single point]

CN(CCN1CCOCC1)C(=O)c1cc(COc2ccc(F)c(F)c2)on1
cell number change: 7.51%

COCC(C)NC(=O)C1CCN(S(=O)(=O)c2ccc3ccccc3c2)CC1 (configuration not stated)
AC50 [1]: 29.1 µM [rising, single point]

COc1ccc(-c2[nH]ncc2N=Nc2cc(C)cc(C)c2)cc1
cell number change: -27.8%
AC50 [1]: 0.116 µM [falling, full curve]

Cc1nc(-c2ccc(S(=O)(=O)N3CCCN(CCc4ccccc4)CC3)s2)cs1
cell number change: 12.6%
AC50 [1]: 0.651 µM [rising, partial curve, poor fit]

CN(Cc1c(O)ccc2c1oc(=O)c1ccccc12)C1CCCCC1
cell number change: -11.4%
AC50 [1]: 29.1 µM [rising, single point]

CCC1CCCCN1C(=O)CSc1nnc(-c2ccc(OC)cc2)o1 (configuration not stated)
cell number change: -40.8%
AC50 [2]: 13 µM [falling, partial curve, poor fit]
AC50 [1]: 25.9 µM [falling, partial curve]

COc1nnc(-c2ccc(C)c(S(=O)(=O)NC(C)(C)CO)c2)c2ccccc12
cell number change: 4.05%
AC50 [1]: 6.51 µM [falling, single point]

CN(C)c1ccc(C(CC(=O)O)NC(=O)c2ccc(Cl)cc2)cc1 (configuration not stated)
cell number change: -9.59%
AC50 [2]: 6.51 µM [falling, single point]
AC50 [1]: 5.17 µM [falling, single point]

COc1ccc(Nc2nnc(-c3ccc(C(N)=O)cc3)c3ccccc23)cc1
cell number change: -31.7%
AC50 [2]: 0.58 µM [falling, partial curve, poor fit]

Cc1cc(C)c2nc3c(c(C(=O)O)c2c1)CCC3
cell number change: -0.198%
AC50 [1]: 1.64 µM [falling, full curve]

COc1cc(OC)cc(C(=O)NNC(=O)c2cc3ccccc3cc2O)c1
AC50 [1]: 5.8 µM [rising, full curve]

CCn1ccc(C(=O)Nc2ccccc2SC)n1
cell number change: 12%
AC50 [1]: 6.51 µM [rising, single point]

Cc1ccccc1C(OCCN(C)C)C1CCCCC1 (configuration not stated)
cell number change: -6.25%
AC50 [1]: 0.206 µM [falling, full curve, poor fit]

O=C(N/N=C/c1ccc(N2CCOCC2)s1)c1ccccc1Br
cell number change: -2.04%

Nc1nonc1N/N=C/c1c(O)ccc2ccccc12
cell number change: -18.1%
AC50 [1]: 0.116 µM [falling, full curve, poor fit]

O=C1CN(Cc2nc3cc(Cl)ccc3c(=O)[nH]2)CCN1
cell number change: 8.24%

CC(C)Oc1ccc(S(=O)(=O)N2CCOCC2)cc1NC(=O)c1ccc(N2CCCC2=O)cc1
cell number change: 12%

O=C(N/N=C/C=C\c1ccccc1)c1cnccn1
cell number change: 39.9%

COc1ccc2cc(C(=O)C3CCCN(C(=O)c4sc(C)nc4C)C3)ccc2c1 (configuration not stated)
cell number change: -2.36%
AC50 [1]: 1.3 µM [rising, full curve]

CCOc1ccc(NC(=O)c2cc(S(=O)(=O)N3CCCCC3)c[nH]2)cc1
cell number change: 7.49%

COc1ccc(NC(=O)CSc2ccc3nnc(-c4cccnc4)n3n2)cc1OC
cell number change: -3.47%

NC(=O)C1CCN(C(c2ccccc2F)c2nnnn2Cc2ccco2)CC1 (configuration not stated)
AC50 [1]: 7.31 µM [falling, partial curve, poor fit]

N/C(=N\OC(=O)COc1ccc2ccccc2c1Br)c1ccncc1
cell number change: 6.37%

CC1(C)C(=O)OC(c2cc(Br)ccc2O)C(C)(C)C1=O (configuration not stated)
cell number change: -27.8%
AC50 [1]: 18.4 µM [falling, single point]

CC(C)CN1CN(S(=O)(=O)c2cccs2)c2nc3ccccc3nc21
cell number change: 8.4%
AC50 [1]: 0.461 µM [rising, partial curve]
